PubChem BioAssay AID686938 – Drosophila RNAi Screening Center, 2013
The deposit covers about 23,000 reagents; shown is a random part of those that have a named target and a result. Over the whole deposit, 75 (0.33%) are marked active. 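Raw plate signals without normalisation; calls rest on plate z-scores that were not deposited; ratio present for only 364 wells.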 Unmarked entries are inactive. Not stated in the record: the dose of the treatment.

Test: 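Knock-downs reducing store-operated calcium influx in Drosophila cells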 (primary screen)
Cell system: Drosophila S2R+ cells
Knock-down reagent: long dsRNA against Drosophila genes, about 0.25 µg dsRNA per well, roughly 10,000 cells
Duration: 5 days of knock-down before the calcium assay
Treatment: thapsigargin (SERCA pump blocker) to empty calcium stores; entry signal taken 4 min after adding it
Measurement: 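Duplicate raw fluo-4 intensities per well from a plate reader, at rest and four minutes after thapsigargin emptied calcium stores; entry-to-rest ratio filled for only some wells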
Reading the numbers: calcium entry signal: higher = stronger calcium signal after store depletion; entry to resting ratio: higher = more calcium entry relative to resting level; resting calcium signal: higher = higher resting calcium signal
Active means: 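Called when the plate z-score of the entry-to-rest ratio, mean of duplicates, falls below −3; wells with low overall dye signal (Fmax z below −2) or more than five off-targets excluded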
Meaning of the calls: active = strongly reduced calcium entry; inactive = no strong reduction

| Target gene | dsRNA | calcium entry signal, replicate 1 (fluorescence units) | calcium entry signal, replicate 2 (fluorescence units) | entry to resting ratio | resting calcium signal, replicate 1 (fluorescence units) | resting calcium signal, replicate 2 (fluorescence units) |
| --- | --- | --- | --- | --- | --- | --- |
| CG8349 (GeneID 34124) | DRSC03083 | 3.57e7 | 4.94e7 | – | 1.66e7 | 2.10e7 |
| CG14340 (GeneID 33287) | DRSC00370 | 4.29e7 | 4.28e7 | – | 1.89e7 | 1.74e7 |
| CG32751 (GeneID 318189) | DRSC21770 | 3.30e7 | 3.71e7 | – | 1.79e7 | 1.78e7 |
| RagA-B (GeneID 41071) | DRSC14450 | 2.68e7 | 3.08e7 | – | 1.13e7 | 1.37e7 |
| anchor (GeneID 39965) | DRSC10861 | 3.25e7 | 4.23e7 | – | 1.42e7 | 2.85e7 |
| CG8768 (GeneID 36400) | DRSC07259 | 4.61e7 | 3.93e7 | – | 1.84e7 | 1.92e7 |
| CG13862 (GeneID 42610) | DRSC14712 | 3.72e7 | 4.29e7 | – | 5.30e7 | 2.01e7 |
| yps (GeneID 39377) | DRSC11411 | 3.18e7 | 4.88e7 | – | 1.58e7 | 2.27e7 |
| Nplp3 (GeneID 59235) | DRSC09944 | 3.47e7 | 5.05e7 | – | 1.63e7 | 2.37e7 |
| CG3713 (GeneID 50365) | DRSC18648 | 5.38e7 | 5.23e7 | 2 | 2.63e7 | 2.11e7 |
| CG4763 (GeneID 37771) | DRSC04009 | 2.00e7 | 3.45e7 | – | 1.11e7 | 1.48e7 |
| CG4763 (GeneID 37771) | DRSC04487 | 4.98e7 | 5.58e7 | – | 2.44e7 | 2.49e7 |
| CG42814 (GeneID 10178958) | DRSC15940 | 4.04e7 | 6.22e7 | – | 2.09e7 | 2.48e7 |
| wam (GeneID 42755) | DRSC15171 | 3.43e7 | 4.94e7 | – | 1.77e7 | 2.15e7 |
| Lsp1gamma (GeneID 38015) | DRSC08672 | 4.13e7 | 3.68e7 | – | 1.84e7 | 1.67e7 |
| Stam (GeneID 34505) | DRSC03444 | 4.78e7 | – | – | 2.12e7 | – |
| shv (GeneID 33220) | DRSC00640 | 2.79e7 | 2.96e7 | – | 1.41e7 | 1.39e7 |
| shv (GeneID 33220) | DRSC22122 | 2.19e7 | 5.70e7 | – | 1.17e7 | 2.41e7 |
| NimC3 (GeneID 48772) | DRSC03556 | 4.61e7 | 3.25e7 | – | 2.13e7 | 1.47e7 |
| NimC3 (GeneID 48772) | DRSC22528 | 3.40e7 | 2.51e7 | – | 1.63e7 | 1.06e7 |
| CG34427 (GeneID 5740165) | DRSC09978 | 3.67e7 | 5.40e7 | – | 1.72e7 | 2.34e7 |
| Idh3g (GeneID 43102) | DRSC15699 | 3.85e7 | 5.12e7 | – | 1.66e7 | 2.22e7 |
| CG13674 (GeneID 38921) | DRSC10033 | 2.66e7 | 3.39e7 | – | 1.50e7 | 1.50e7 |
| Nsun5 (GeneID 7354421) | DRSC15835 | 2.98e7 | 2.51e7 | – | 1.32e7 | 1.11e7 |

2 successive records already listed:
| Target gene | dsRNA | calcium entry signal, replicate 1 (fluorescence units) | calcium entry signal, replicate 2 (fluorescence units) | entry to resting ratio | resting calcium signal, replicate 1 (fluorescence units) | resting calcium signal, replicate 2 (fluorescence units) |
| --- | --- | --- | --- | --- | --- | --- |
| wam (GeneID 42755) | DRSC15171 | 3.43e7 | 4.94e7 | – | 1.77e7 | 2.15e7 |
| Lsp1gamma (GeneID 38015) | DRSC08672 | 4.13e7 | 3.68e7 | – | 1.84e7 | 1.67e7 |
